According to PubChem BioAssay AID248 (DTP/NCI, 2004):
The list shows only some results of the screen, not a fair sample: it is rich in T/C values a quarter to a half above the control, in often repeated tests (any T/C) and in doses without a T/C. Further doses and runs are listed elsewhere. T/C is the treated group as % of the vehicle group. Some entries give survivors of the animals treated and no T/C: the source files T/C as zero there, which appears to mark a toxic dose or a test without result, not a measured value. Some survivor counts are full or nearly so, which does not show that the dose was tolerated: the source hardly ever lists a survival T/C far under the control, and the zero likely stands for such cases as well. Counts of survivors are from the toxicity check (mostly the fifth day) where no day follows; animals may have died later. Schedules are NCI's codes, read here as Q, the interval in days (D) or hours (H), X, the number of doses. Some schedule codes hold Z or #, which are not explained here. Where survival is the endpoint, this PubChem deposit counts one and a half times the control or more as active, and values a quarter to a half above the control carry no call in these data; other NCI protocols may use other cut-offs. Some entries hold several experiments; the results are listed from low to high. Signs of the kind (2×) stand for listed records that agree. Some T/C values carry the count of animals alive at the toxicity check (mostly the fifth day); where none is given, no animal had died by that day.

System: L1210 leukemia ip in BDF1 mice, survival T/C
Experiment: NCI In Vivo Anticancer Drug Screen. Data for tumor model L1210 Leukemia (intraperitoneal) in B6D2F1 (BDF1) mice
Conditions: T/C endpoint: mean survival time, higher T/C = longer survival

CCCC(=O)OCC1OC(n2cnc3c(=S)nc[nH]c32)C(OC(=O)CCC)C1OC(=O)CCC (configuration not stated) was tested, and the T/C (dose: 12.5 mg/kg/injection, schedule: Q01DX009 (ip), vehicle: saline with Tween-80) was 138 % of control, the T/C (dose: 12.5 mg/kg/injection, schedule: Q01DX Z (ip), vehicle: other) was 135 % of control and the T/C (dose: 19.0 mg/kg/injection, schedule: Q04DX003 (ip), vehicle: saline) was 127 % of control. The T/C (dose: 25.0 mg/kg/injection, schedule: Q01DX009 (ip), vehicle: saline) was 131 % of control, the T/C (dose: 29.0 mg/kg/injection, schedule: Q04DX003 (ip), vehicle: saline) was 130 % of control and the T/C (dose: 44.0 mg/kg/injection, schedule: Q01DX Z (ip), vehicle: carboxymethylcellulose (CMC)) was 133 % of control. The T/C (dose: 50.0 mg/kg/injection, schedule: Q01DX001 (ip), vehicle: saline) was 128 % of control, the T/C (dose: 50.0 mg/kg/injection, schedule: Q01DX009 (ip), vehicle: saline) was 138 % of control and the T/C (dose: 50.0 mg/kg/injection, schedule: Q04DX003 (ip), vehicle: saline) was 135 % of control. For the same molecule, the T/C (dose: 67.0 mg/kg/injection, schedule: Q01DX Z (ip), vehicle: carboxymethylcellulose (CMC)) was 141 % of control, the T/C (dose: 100.0 mg/kg/injection, schedule: Q01DX001 (ip), vehicle: saline) was 141 and 145 % of control and the T/C (dose: 100.0 mg/kg/injection, schedule: Q01DX009 (ip), vehicle: saline) was 136 % of control. The T/C (dose: 100.0 mg/kg/injection, schedule: Q01DX Z (ip), vehicle: carboxymethylcellulose (CMC)) was 143 % of control, the survivor count (dose: 100.0 mg/kg/injection, schedule: Q01DX Z (ip), vehicle: other) was 5 of 6 and the T/C (dose: 100.0 mg/kg/injection, schedule: Q04DX003 (ip), vehicle: acetone) was 132 % of control. For the same molecule, the T/C (dose: 100.0 mg/kg/injection, schedule: Q04DX003 (ip), vehicle: saline) was 143 % of control, the T/C (dose: 132.0 mg/kg/injection, schedule: Q01DX001 (ip), vehicle: saline) was 131 and 137 % of control and the T/C (dose: 132.0 mg/kg/injection, schedule: Q04DX003 (ip), vehicle: acetone) was 142 % of control. The T/C (dose: 132.0 mg/kg/injection, schedule: Q04DX003 (ip), vehicle: saline) was 138 % of control, the T/C (dose: 150.0 mg/kg/injection, schedule: Q01DX Z (ip), vehicle: carboxymethylcellulose (CMC)) was 133 % of control and the T/C (dose: 200.0 mg/kg/injection, schedule: Q01DX001 (ip), vehicle: saline) was 137 (2×), 141, 151 % of control. The survivor count (dose: 200.0 mg/kg/injection, schedule: Q01DX009 (ip), vehicle: saline) was 6 of 6, the survivor count (dose: 200.0 mg/kg/injection, schedule: Q01DX Z (ip), vehicle: other) was 2 of 6 and the T/C (dose: 200.0 mg/kg/injection, schedule: Q04DX003 (ip), vehicle: acetone) was 142 and 145 % of control. The T/C (dose: 200.0 mg/kg/injection, schedule: Q04DX003 (ip), vehicle: saline) was 136 % of control [5 of 6 alive], the T/C (dose: 300.0 mg/kg/injection, schedule: Q01DX001 (ip), vehicle: saline) was 136 % of control and the T/C (dose: 300.0 mg/kg/injection, schedule: Q04DX003 (ip), vehicle: acetone) was 140 % of control. For the same molecule, the T/C (dose: 300.0 mg/kg/injection, schedule: Q04DX003 (ip), vehicle: saline) was 140 % of control, the T/C (dose: 400.0 mg/kg/injection, schedule: Q01DX001 (ip), vehicle: saline) was 136 % of control and the survivor count (dose: 400.0 mg/kg/injection, schedule: Q01DX Z (ip), vehicle: other) was 3 of 6. For the same molecule, the T/C (dose: 400.0 mg/kg/injection, schedule: Q04DX003 (ip), vehicle: acetone) was 138 % of control and the survivor count (dose: 800.0 mg/kg/injection, schedule: Q01DX Z (ip), vehicle: other) was 0 of 6.
